Measurements published in PubChem BioAssay AID743255 (National Center for Advancing Translational Sciences (NCATS), 2014).
The campaign covered roughly 390,000 compounds. About 910 (0.23%) were called active. The inconclusive results got no clear call from the source; some entries with a clear call stand among them for comparison. Calls come from the whole dose curve; as a rule, active = well fitted inhibition curve with a large enough effect; inconclusive = small, poorly fitted or top-dose-only effect; inactive = no such curve, though single readings can be large or run the other way. Where the call is inconclusive, the potency comes from a doubtful curve fit.
Note: nearly all actives have a fitted effect of over 60% in size.
Potency is the fitted concentration of half-maximal effect.

Sequences of proteins named here, by UniProt entry; tags and fusion partners are left off. A change or cut given only in a name is not applied to a line headed by its entry.
UniProt O94782: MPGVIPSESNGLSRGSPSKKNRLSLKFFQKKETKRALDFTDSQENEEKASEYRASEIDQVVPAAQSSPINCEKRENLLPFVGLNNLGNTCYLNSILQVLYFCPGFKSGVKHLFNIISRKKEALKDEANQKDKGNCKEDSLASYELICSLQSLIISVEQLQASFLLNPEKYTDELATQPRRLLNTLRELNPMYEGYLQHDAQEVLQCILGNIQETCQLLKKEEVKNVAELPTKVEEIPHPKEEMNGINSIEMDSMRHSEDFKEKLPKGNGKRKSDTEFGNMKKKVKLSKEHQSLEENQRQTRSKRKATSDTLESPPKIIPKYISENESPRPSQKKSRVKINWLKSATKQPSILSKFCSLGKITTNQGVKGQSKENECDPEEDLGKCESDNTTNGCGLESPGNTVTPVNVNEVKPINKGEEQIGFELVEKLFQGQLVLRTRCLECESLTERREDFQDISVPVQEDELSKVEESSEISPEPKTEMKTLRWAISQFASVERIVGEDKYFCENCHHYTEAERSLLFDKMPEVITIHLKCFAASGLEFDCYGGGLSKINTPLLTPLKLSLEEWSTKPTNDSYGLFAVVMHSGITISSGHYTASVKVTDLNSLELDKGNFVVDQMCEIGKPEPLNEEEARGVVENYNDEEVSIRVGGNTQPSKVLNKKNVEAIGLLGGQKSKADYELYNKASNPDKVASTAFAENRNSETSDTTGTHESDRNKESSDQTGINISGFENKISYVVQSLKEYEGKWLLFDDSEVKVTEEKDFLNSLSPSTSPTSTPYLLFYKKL

The compounds below were run against Ubiquitin carboxyl-terminal hydrolase 1 (Homo sapiens) (UniProt O94782) (assay: Inhibitors of USP1/UAF1: Primary Screen). Details: recombinant USP1/UAF1, Ub-Rhodamine cleavage fluorescence; series mostly up to 57.1 µM.
How it was run: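 In this screen, compounds sit with the deubiquitinase complex (1nM) for 15 min at room temperature before Ub-Rho is added at 150nM final. Fluorescence rise is then followed for 6 reads every 60 seconds.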
For Cc1cc(C)cc(-n2c(SCC(=O)Nc3cccc(S(=O)(=O)NC4=NCCCCC4)c3)nc3ccccc3c2=O)c1, the Potency was “inactive”. For CN(C)c1ccc(C2Nc3cccc4cccc(c34)N2)cc1, the Potency was inconclusive: 31.6 µM [inhibitor, partial curve]. For CC(=O)Cn1c2ccccc2n2nc(CCC(=O)O)c(=O)nc12, the Potency was inconclusive: 12.6 µM [inhibitor, partial curve, poor fit]. In the case of CCCCCCN1C[C@@H](n2cc(-c3ccc(F)cc3)nn2)[C@H](O)C[C@@H]1c1ccc(OC)cc1, the Potency is reported as inconclusive: 44.7 µM [inhibitor, partial curve, poor fit]. For CCC(C)c1ccc(S(=O)(=O)N2CCN(S(=O)(=O)c3ccc(NC(C)=O)cc3)CC2)cc1 (configuration not stated), the Potency was “inactive”. In the case of COc1ccccc1C(=O)OCc1cc(=O)n2nc(C3CC3)sc2n1, the Potency is reported as inconclusive: 39.8 µM [inhibitor, partial curve, poor fit]. O=C(c1ccco1)N1N=C(c2cccs2)CC1c1ccc(F)cc1 (configuration not stated) was tested, and the Potency was inconclusive: 50.1 µM [inhibitor, partial curve, poor fit]. With Cc1cc(-n2cnnn2)cc(C)c1S(=O)(=O)N(C)c1ccccc1 the Potency was inconclusive: 11.2 µM [inhibitor, partial curve, poor fit]. For O=C1CN(C(=O)COC(=O)c2ccc[n+]([O-])c2)c2ccccc2N1, the Potency was inconclusive: 5.01 µM [inhibitor, full curve]. In the case of CC(C)c1nnc(NC(=O)CC(C)c2ccccc2)s1 (configuration not stated), the Potency is reported as “inactive”. For Cc1c(Cl)cnc(NC(=O)COC(=O)C2CC2)c1Cl, the Potency was inconclusive: 44.7 µM [inhibitor, partial curve]. With O=[N+]([O-])c1cccc(S(=O)(=O)NCC2CC3CCC2C3)c1 (configuration not stated) the Potency was “inactive”. COc1ccc(-n2cnnc2SCC(=O)Nc2cc(C)on2)cc1 was tested, and the Potency was inconclusive: 0.141 µM [inhibitor, full curve, poor fit]. In the case of COc1ccc(-c2cccc(NS(=O)(=O)c3cc(C)c(OC)c(C)c3C)c2)nn1, the Potency is reported as inconclusive: 0.708 µM [inhibitor, full curve, poor fit]. CCOC(=O)c1sc(=S)n(-c2ccccc2)c1N(C(C)=O)C(C)=O was tested, and the Potency was inconclusive: 8.91 µM [inhibitor, partial curve, poor fit]. With COc1ccccc1CNC(=O)CSc1ncc2c(n1)-c1ccc(Cl)cc1N(Cc1ccccc1)S2(=O)=O the Potency was inconclusive: 6.31 µM [inhibitor, full curve, poor fit]. With O=C(Cc1ccccc1F)Nc1cc(Cl)ccc1N1CCCC1 the Potency was inconclusive: 44.7 µM [inhibitor, partial curve, poor fit]. With Cc1ccc(Oc2c(C(F)(F)F)oc3cc(OCC(=O)NC4CCCCC4)ccc3c2=O)cc1 the Potency was inconclusive: 7.94 µM [inhibitor, partial curve, poor fit]. CCC1CN(C(=O)N2CCC(C(=O)NCCN(CC)CC)CC2)c2ccccc2O1 (configuration not stated) was tested, and the Potency was inconclusive: 1.58 µM [inhibitor, full curve]. In the case of CNC(=O)CSc1nnc(-c2ccco2)n1-c1cccc(C)c1C, the Potency is reported as inconclusive: 0.398 µM [inhibitor, full curve, poor fit]. With Cc1ccc(NS(=O)(=O)c2cc(N)ccc2Cl)c(C)c1 the Potency was inconclusive: 22.4 µM [inhibitor, partial curve, poor fit]. In the case of COc1ccc(Cl)cc1NC(=O)CN(C)S(=O)(=O)c1ccc2c(c1)CCCN2C(C)=O, the Potency is reported as inconclusive: 4.47 µM [inhibitor, partial curve]. For CCc1ccc(-c2nc(CN3CCCC(C(=O)N4CCN(c5cc(Cl)ccc5C)CC4)C3)c(C)o2)cc1 (configuration not stated), the Potency was “inactive”. For O=C(N/N=C(\c1ccccc1)c1cccnc1)c1cccc(F)c1, the Potency was “inactive”. COc1ccc(N2CC(C(=O)Nc3ccc(NC(C)=O)cc3)CC2=O)cc1 (configuration not stated) was tested, and the Potency was “inactive”. c1ccc(C2=NOC(c3nnc(-c4ccccc4)o3)C2)cc1 (configuration not stated) was tested, and the Potency was inconclusive: 50.1 µM [inhibitor, partial curve, poor fit]. For Cc1noc2ncnc(Oc3cc(Cl)ccc3Cl)c12, the Potency was “inactive”. With COc1ccc2c(c1)C(=O)N(c1ccccc1OC)C(=O)C2 the Potency was inconclusive: 14.1 µM [inhibitor, partial curve]. COc1ccccc1-c1nnc(SCCOc2ccccc2C)o1 was tested, and the Potency was “inactive”. In the case of CCOc1ccc(C(c2c(O)cc(C)n(CCOC)c2=O)N2CCN(c3ccccc3F)CC2)cc1 (configuration not stated), the Potency is reported as inconclusive: 5.01 µM [inhibitor, partial curve]. For O=C1ON=C(c2ccccc2)/C1=C/c1ccco1, the Potency was inconclusive: 14.1 µM [inhibitor, partial curve]. For CC(C)(C)n1nnnc1C(c1cc2cc3c(cc2[nH]c1=O)OCCO3)N1CCSCC1 (configuration not stated), the Potency was “inactive”. In the case of CCCCN1C(=O)C(CC(=O)NCC2CCCCC2)CC(C(=O)N(C(C)C)C(C)C)=C1C (configuration not stated), the Potency is reported as inconclusive: 0.282 µM [inhibitor, full curve]. For CC(=O)Nc1ccc2c(O)cc(S(=O)(=O)O)cc2c1, the Potency was inconclusive: 50.1 µM [inhibitor, partial curve, poor fit]. In the case of CON1C(=O)C(=O)N(OC)C(C)(C)C1C (configuration not stated), the Potency is reported as inconclusive: 14.1 µM [inhibitor, partial curve]. In the case of COc1ccc(NC(=O)/C(C#N)=C\C=C\c2ccco2)cc1, the Potency is reported as “inactive”. With CCC(C(=O)NC1CCCC1)N(C(=O)Cn1nnc(-c2ccc(OC)c(OC)c2)n1)c1cccc(O)c1 (configuration not stated) the Potency was inconclusive: 35.5 µM [inhibitor, single point]. For CCOC(=O)C1CCN(c2nc(N)c3c(N)nc(SCC(=O)O)cc3c2C#N)CC1, the Potency was inconclusive: 28.2 µM [inhibitor, partial curve]. With COc1ccccc1N1CCN(c2ccc(=O)n(CC(=O)Nc3ccc(F)c(F)c3)n2)CC1 the Potency was “inactive”. O=C1N=C(c2ccccc2)S/C1=C\c1cccs1 was tested, and the Potency was “inactive”. For CN(C)S(=O)(=O)c1ccc(S(=O)(=O)Nc2ccc3c(c2)oc2ccccc23)cc1, the Potency was inconclusive: 44.7 µM [inhibitor, partial curve, poor fit]. For CCOc1ccc(NC(=O)N2CCC(CN3CCc4ccccc4C3)CC2)cc1, the Potency was “inactive”.
